Reference: paper doi:10.1101/2022.03.04.482948
No constants are given. Whether binding was seen depends on the method and setting. Binding seen in cells or lysates may run through a third protein. Some binding calls cover weakened binding; strength is not graded here.

Protein sequences, listed by entry. Tags and fused reporters are not part of them.
UniProt Q9UKV8: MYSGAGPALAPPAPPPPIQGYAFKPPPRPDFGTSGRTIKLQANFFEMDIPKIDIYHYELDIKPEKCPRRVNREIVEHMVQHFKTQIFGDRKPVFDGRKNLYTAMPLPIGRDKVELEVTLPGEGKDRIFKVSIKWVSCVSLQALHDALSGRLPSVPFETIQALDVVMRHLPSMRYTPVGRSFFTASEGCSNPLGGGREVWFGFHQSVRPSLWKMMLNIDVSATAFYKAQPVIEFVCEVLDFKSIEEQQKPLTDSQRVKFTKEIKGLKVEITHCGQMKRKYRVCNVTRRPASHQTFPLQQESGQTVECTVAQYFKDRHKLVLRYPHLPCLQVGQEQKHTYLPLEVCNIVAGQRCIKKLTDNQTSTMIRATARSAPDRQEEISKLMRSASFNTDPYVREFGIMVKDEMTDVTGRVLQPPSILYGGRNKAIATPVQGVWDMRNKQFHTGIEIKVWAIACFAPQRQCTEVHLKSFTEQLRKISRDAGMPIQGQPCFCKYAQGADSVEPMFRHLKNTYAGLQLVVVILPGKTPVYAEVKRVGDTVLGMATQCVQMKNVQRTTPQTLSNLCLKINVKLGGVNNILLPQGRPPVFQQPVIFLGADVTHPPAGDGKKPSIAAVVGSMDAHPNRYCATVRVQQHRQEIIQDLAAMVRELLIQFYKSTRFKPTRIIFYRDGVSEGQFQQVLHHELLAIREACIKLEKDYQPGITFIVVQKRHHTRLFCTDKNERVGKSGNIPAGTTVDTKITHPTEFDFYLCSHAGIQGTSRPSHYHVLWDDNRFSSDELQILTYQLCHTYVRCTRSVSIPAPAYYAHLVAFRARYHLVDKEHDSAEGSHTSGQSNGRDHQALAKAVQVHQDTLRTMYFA
UniProt P09405: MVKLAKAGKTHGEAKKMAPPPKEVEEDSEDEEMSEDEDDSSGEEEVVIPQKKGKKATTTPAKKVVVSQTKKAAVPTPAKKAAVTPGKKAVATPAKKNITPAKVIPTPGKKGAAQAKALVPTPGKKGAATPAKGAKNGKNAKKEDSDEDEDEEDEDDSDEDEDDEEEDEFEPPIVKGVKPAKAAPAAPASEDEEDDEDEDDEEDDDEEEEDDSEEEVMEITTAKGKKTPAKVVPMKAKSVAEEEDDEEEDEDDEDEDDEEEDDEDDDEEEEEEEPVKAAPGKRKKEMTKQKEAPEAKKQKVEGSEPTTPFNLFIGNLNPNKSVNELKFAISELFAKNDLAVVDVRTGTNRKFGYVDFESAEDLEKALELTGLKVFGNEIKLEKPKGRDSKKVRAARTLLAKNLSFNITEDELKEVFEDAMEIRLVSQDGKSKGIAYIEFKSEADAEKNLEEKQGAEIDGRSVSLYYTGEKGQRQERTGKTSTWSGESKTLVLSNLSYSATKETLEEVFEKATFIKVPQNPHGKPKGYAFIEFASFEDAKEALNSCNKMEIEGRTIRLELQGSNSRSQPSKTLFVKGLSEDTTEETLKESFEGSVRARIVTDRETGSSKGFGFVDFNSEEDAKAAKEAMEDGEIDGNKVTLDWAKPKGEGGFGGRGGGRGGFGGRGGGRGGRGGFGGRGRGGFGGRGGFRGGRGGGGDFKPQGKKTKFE

Target: FLAG-tagged AGO2, full-length (human) (UniProt Q9UKV8)
Experiment: co-IP

Nucleolin (from UniProt P09405 1-707)
binding: binds
